Experimental data reported in patent US20220017486A1, “DOCK1-INHIBITING COMPOUND AND USE THEREOF” (KYUSHU UNIVERSITY, NATIONAL UNIVERSITY CORPORATION, priority 2018, published 2022).
For at least one compound, name, drawing or mass did not settle the structure.

Biological target: T1, DOCK1 (DHR-2 domain) (Homo sapiens, UniProt Q14185)
T1 construct: polypeptide fragments corresponding to the DHR-2 domain of DOCK1 or DOCK2 from mice and humans; Histidine-SUMO (N); made in house; host or cells: E. coli Arctic express (DE3)
T1 sequence (Q14185 1207-1617 limits assumed): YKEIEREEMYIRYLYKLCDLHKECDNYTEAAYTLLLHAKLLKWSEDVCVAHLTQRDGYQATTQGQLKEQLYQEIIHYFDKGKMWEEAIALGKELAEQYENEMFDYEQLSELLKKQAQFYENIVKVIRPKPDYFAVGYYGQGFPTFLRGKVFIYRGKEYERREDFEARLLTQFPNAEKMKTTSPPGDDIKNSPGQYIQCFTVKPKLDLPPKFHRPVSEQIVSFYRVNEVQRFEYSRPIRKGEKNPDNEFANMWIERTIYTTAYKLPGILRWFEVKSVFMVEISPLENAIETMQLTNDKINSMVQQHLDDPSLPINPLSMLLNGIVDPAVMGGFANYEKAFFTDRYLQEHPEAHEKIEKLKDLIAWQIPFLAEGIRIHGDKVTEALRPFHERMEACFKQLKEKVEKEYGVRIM
Experiment: In vitro GEF assay: Rac activation by DOCK1 DHR-2 domain
Format: biochemical, mice and humans
Details: in words, GEF assay DOCK1 vs DOCK2 DHR-2 domain
Description: DOCK1 and DOCK2, i.e., DOCK-A subfamily members, both activate Rac by catalyzing the GTP-GDP exchange reaction for Rac via their DHR-2 domains. Therefore, in this Pharmacological Test, the inhibitory effect of the compounds of the present invention on Rac activation by DOCK1 or DOCK2 was assessed in an in vitro GEF assay by using polypeptide fragments corresponding to the DHR-2 domain of DOCK1 or DOCK2 from mice and humans. The in vitro GEF assay was performed using a labeled GTP (Bodipy-FL-GTP, Invitrogen), which has a property of increasing the fluorescence intensity when bound to Rac.
The polypeptide fragments corresponding to the DHR-2 domain of DOCK1 or DOCK2 were prepared by expression in E. coli Arctic express (DE3) cells as N-terminal. […]
Changes in fluorescence intensity of Bodipy-FL-GTP in the reaction solutions were monitored using an EnSpire spectrofluorometer (Perkin Elmer) (excitation wavelength: 488 nm, fluorescence wavelength: 514 nm). The measured values were corrected so that the fluorescence intensity at the beginning of the reaction (0 sec) was 0. Then, an approximate curve (hyperbola) was obtained by plotting the calculated correction values on the y-axis and the time (t) on the x-axis using GraphPad Prism5 (GraphPad software), and the slope at t=0 to 10 seconds was defined as the initial velocity of the guanine nucleotide exchange reaction. […]

SMILES	selective inhibitory activity against DOCK1 versus DOCK2
Cc1cc(-c2cccc(C(F)(F)F)c2)ccc1C(=O)CBr [AK-5, 2-bromo-1-(3-methyl-3′-(trifluoromethyl)-[1,1′-biphenyl]-4-yl)ethan-1-one]	higher selective inhibitory activity against DOCK1 than against DOCK2
O=C(Cn1cc(S(=O)(=O)N2CCC(c3ccc(-c4cc(F)c(F)c(F)c4)cc3)CC2)ccc1=O)c1ccc(-c2cccc(C(F)(F)F)c2)cc1 [KS-54, 1-(2-oxo-2-(3′-(trifluoromethyl)-[1,1′-biphenyl]-4-yl)ethyl)-5-((4-(3′,4′,5′-trifluoro-[1,1′-biphenyl]-4-yl)piperidin-1-yl)sulfonyl)pyridin-2(1H)-one]	higher selective inhibitory activity against DOCK1 than against DOCK2
